The structures given here were assigned with low confidence; some may be wrong.
Target: BTK (Homo sapiens, UniProt Q06187)
Assay: Cellular BTK HTRF Assay (BTK levels in Ramos cells)
Conditions: read-out: Cellular BTK HTRF Ramos: DC50; Ramos cells, 50,000 cells, incubated four hours at 37° C.; BTK levels by Cisbio Total-BTK HTRF relative to DMSO-treated cells
Experimental: Ramos (CRL-1596) cells were obtained from American Type Culture Collection and were grown in RPMI-1640 media (ATCC, 30-2001) supplemented with 10% heat-inactivated FBS (Corning Premium Fetal Bovine Serum from Fisher, MT35015CV).
Compounds of the present invention were added to 50,000 Ramos cells in round-bottom 96 well plates with a final DMSO concentration of […] and were incubated at 37° C. 5% CO2 for four hours. BTK levels were determined using Cisbio Total-BTK HTRF ([…] Time-Resolved Fluorescence) kit (63ADK064PEG) according to manufacturer's protocol. Briefly, cells were incubated in 1× supplied lysis buffer for 30 minutes. In an opaque white low volume 96 well plate (Cisbio, 66PL96005), cell lysate was combined with two different specific BTK antibodies, one conjugated with Eu^3+-Cryptate FRET donor and one conjugated with d2 FRET acceptor. Assay controls include wells containing cell lysate with only the Eu^3+-Cryptate FRET donor antibody and wells containing both HTRF antibodies and lysis buffer without cells or control lysate provided by Cisbio. HTRF ratio was calculated as (acceptor signal at 665 nm/donor signal at 620 nm)×10^4. Background HTRF levels were determined from the control well containing the donor, but no acceptor, antibody. […] Readouts were reported as HTRF levels relative to HTRF levels of DMSO-treated cells. […]

Protein sequences, listed by entry. Tags and fused reporters are not part of them.
UniProt Q06187, whole entry: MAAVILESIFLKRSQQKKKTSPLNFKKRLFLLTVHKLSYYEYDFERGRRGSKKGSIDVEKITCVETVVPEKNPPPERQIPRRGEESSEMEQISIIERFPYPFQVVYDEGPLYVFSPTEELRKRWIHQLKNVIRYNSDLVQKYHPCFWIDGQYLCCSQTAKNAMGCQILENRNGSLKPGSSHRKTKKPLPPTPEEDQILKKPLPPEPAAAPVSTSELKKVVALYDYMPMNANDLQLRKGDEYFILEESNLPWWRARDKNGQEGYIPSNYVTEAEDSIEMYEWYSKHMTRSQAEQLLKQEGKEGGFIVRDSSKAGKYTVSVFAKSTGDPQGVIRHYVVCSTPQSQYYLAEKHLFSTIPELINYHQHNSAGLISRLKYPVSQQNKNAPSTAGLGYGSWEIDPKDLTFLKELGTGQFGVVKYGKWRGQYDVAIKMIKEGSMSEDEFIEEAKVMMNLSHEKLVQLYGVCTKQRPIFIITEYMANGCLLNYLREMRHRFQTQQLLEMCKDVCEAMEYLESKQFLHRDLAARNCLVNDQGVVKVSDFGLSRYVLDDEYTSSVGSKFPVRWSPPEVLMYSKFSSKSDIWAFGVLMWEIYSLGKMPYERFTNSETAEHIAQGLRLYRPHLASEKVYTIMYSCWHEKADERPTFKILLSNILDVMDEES

## CN[C@@H](C)C(=O)N[C@H](C(=O)N1CCC[C@H]1c1nc(C(=O)c2cccc(OCCOCCOCCOCCOCCC(=O)N3CCn4nc(Nc5cc(-c6ccnc(-n7ncc8cc(C(C)(C)C)cc(F)c8c7=O)c6CO)cn(C)c5=O)cc4C3)c2)cs1)C1CCCCC1
  DC50: 10 to 1000 nM

— patent US20230024442A1, “BIFUNCTIONAL COMPOUNDS FOR GRADING BTK VIA UBIQUITIN PROTEOSOME PATHWAY” (NURIX THERAPEUTICS, INC., priority 2019, published 2023)
